# Source: PubChem BioAssay AID1347076 (National Center for Advancing Translational Sciences (NCATS), 2019)
# Values joined by “and” are separate entries in the source; they are usually repeats but may differ in a detail not shown here. Identical values can stand only once. About 13,000 (3.2%) of roughly 400,000 compounds were called active. The inconclusive results got no clear call from the source; some entries with a clear call stand among them for comparison. The call rests on the fitted dose curve; in most records, active means well fitted cell-killing curve with a large enough effect; inconclusive means small, poorly fitted or top-dose-only effect, or effect the other way; inactive means flat fitted curve, though single readings scatter. Where the call is inconclusive, the potency comes from a doubtful curve fit.
# Assay: qHTS assay for MDR1-selective chemotherapeutics: Primary screen using the drug-selected MDR subline cells KB-V1; further: nearly all actives have a fitted effect of over 60% in size
# Conditions: KB-V1 MDR cells viability, CellTiter-Glo, 72 h; series mostly up to 46.1 µM
# In short: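 qHTS viability screen in drug-selected KB-V1 MDR cells: 72 h compound treatment at 37 degrees C, ATP luminescence end point.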
# Potency means the concentration at half of the fitted maximal effect.
row,Structure (SMILES),Potency
1,CCOC(=O)[C@]12CCCC=C1N(Cc1ccc3c(c1)OCO3)C(=O)[C@H](CC(=O)NCc1cccs1)C2,"inconclusive: 8.2 µM [cytotoxic, partial curve]"
2,CNC(=S)/N=C(/Nc1ccccc1)c1ccccc1,inactive
3,CC(C)=CCc1c2c(c(O)c3c(=O)c4c(oc13)-c1cc(O)c(O)cc1OC4C=C(C)C)C=CC(C)(C)O2 (stereo not given),"inconclusive: 29.1 µM [cytotoxic, single point]"
4,CSc1ccc(NC(=O)N2CCN(c3nc4ccccc4s3)CC2)cc1,active: 2.59 µM
5,O=C(/C=C/c1ccccc1)NCCS(=O)(=O)N1CCN(c2ccccc2F)CC1,"inconclusive: 8.2 µM [cytotoxic, partial curve, poor fit]"
6,COc1ccc(/C=C2/Sc3ccc(C(=O)NCCN4CCCCCC4)cc3NC2=O)cc1,"inconclusive: 29.1 µM [cytotoxic, single point]"
7,CNC(=O)c1sc(Nc2ccc(OCc3ccccc3)cc2)nc1C,active: 8.2 µM
8,O=C1CC(c2ccccc2)CC(O)=C1C=NCc1ccccc1Cl (stereo not given),"inconclusive: 14.6 µM [cytotoxic, partial curve, poor fit]"
9,CCOC(=O)c1c(C)oc2cc(Br)c(OC(C)C(=O)OCC)cc12 (stereo not given),"inconclusive: 16.4 µM [cytotoxic, partial curve]"
10,O=C1C=C(NC2CCCC2)CC(c2ccccc2)C1 (stereo not given),"inconclusive: 9.2 µM [cytotoxic, partial curve]"
11,COc1ccc(C2C(=O)c3ccccc3C2=O)cc1,inactive
12,CC(C)CCC1(CCNC(=O)c2cccs2)CCOC(C)(C)C1 (stereo not given),"inconclusive: 1.46 µM [cytotoxic, full curve]"
13,O=C(CCN=C1NS(=O)(=O)c2ccccc21)OCc1nnc(-c2ccccc2)o1,inactive
14,COc1ccc(NC(=S)N2CCN(C/C=C/c3ccccc3)CC2)c(OC)c1,"inconclusive: 20.6 µM [cytotoxic, single point]"
15,Cc1ccc(NC(=O)CSc2ccccc2NC(=O)c2cccc(Cl)c2)cc1Cl,"inconclusive: 2.91 µM [cytotoxic, partial curve, poor fit]"
16,Cc1ccc(-n2ncc3c(N4CCN(CCO)CC4)ncnc32)cc1Cl,inactive
17,COC(=O)C1N[C@@H]([C@@H](NC(=O)COc2ccccc2)C(=O)NCc2ccsc2)SC1(C)C (stereo not given in full),"inconclusive: 9.2 µM [cytotoxic, partial curve, poor fit]"
18,O=C(Nc1ccc2c(c1)ncn2-c1ccccc1)c1ccco1,"inconclusive: 29.1 µM [cytotoxic, single point]"
19,COc1ccc(NC(=S)Nc2ccc3nccnc3c2)cc1,"inconclusive: 18.4 µM [rising, partial curve, poor fit]"
20,Nc1c(C(=O)CSc2nncn2-c2ccccc2)c(=O)[nH]c(=O)n1C1CC1,"inconclusive: 20.6 µM [rising, single point]"
21,COc1ccc(N/C=C(\C#N)S(=O)(=O)c2ccc(Cl)cc2)c(OC)c1,inactive
22,CCOc1ccccc1NC(=O)CSc1nc2c(c(=O)n(C)c(=O)n2C)n1C,"inconclusive: 2.06 µM [cytotoxic, partial curve, poor fit]"

row,Structure (SMILES),Potency
1,C=CCN1C(=O)CS/C1=N\S(=O)(=O)c1ccc(Cl)cc1,"inconclusive: 18.4 µM [cytotoxic, single point]"
2,CN(C1CCCCC1)S(=O)(=O)c1ccc(=S)[nH]c1,active: 14.6 µM
3,CC(=O)N1CCN(C(=O)CCc2cc(C(C)(C)C)c(O)c(C(C)(C)C)c2)CC1,"inconclusive: 25.9 µM [cytotoxic, single point]"
4,CC(=O)NC(c1ccccc1)c1nc(-c2cccs2)cs1 (stereo not given),"inconclusive: 20.6 µM [cytotoxic, single point]"
5,Cc1ccc(S(=O)(=O)n2nccc2-c2c(-c3ccc(Cl)cc3)noc2C)cc1,"inconclusive: 6.51 µM [cytotoxic, partial curve, poor fit]"
6,CC(C)Nc1nc(N)c(C(=O)C23CC4CC(CC(C4)C2)C3)s1,inactive
7,CC(C)(C)NC(=O)c1cc(NC(=O)c2cccs2)cc(NC(=O)c2cccs2)c1,"inconclusive: 18.4 µM [cytotoxic, partial curve, poor fit]"
8,CCOc1cc(/C=C/c2nc3cc(C)c(C)cc3s2)ccc1OCC(=O)N1CCOCC1,active: 10.3 µM
9,O=C(CC1SC(N2CCCCC2)=NC1=O)Nc1cccc(C(F)(F)F)c1 (stereo not given),"inconclusive: 8.2 µM [cytotoxic, partial curve, poor fit]"
10,CC(=O)c1cc2c(cc1NC(=O)CN1CCN(c3cccc(C(F)(F)F)c3)CC1)OCO2,"inconclusive: 11.6 µM [cytotoxic, partial curve, poor fit]"
11,CCS(=O)(=O)N1CCC(C(=O)N2CCOCC2)CC1,inactive
12,O=C(Nc1ccccc1Br)C1CC(=O)N(c2ccc3c(c2)OCCO3)C1 (stereo not given),"inconclusive: 8.2 µM [cytotoxic, partial curve, poor fit]"
13,CCN(CC(=O)Nc1ccc2c(c1)OCCO2)C(=O)CCOc1ccccc1,inactive
14,CC(=O)NCCNC(=O)C1(C)Cc2c(-c3cccc(C(F)(F)F)c3)ccnc2O1 (stereo not given),inactive
15,COc1ccccc1C(=O)NC(=O)Nc1nc(-c2ccccc2)cc(C(F)(F)F)n1,inactive
16,Cc1ccc(NC(=S)N2CCN(S(C)(=O)=O)CC2)cc1,"inconclusive: 29.1 µM [rising, single point]"
17,COc1cccc(C(NC(C)=O)c2nc(-c3cccc(C#N)c3)cs2)c1 (stereo not given),inactive
18,CCCc1cc(=O)[nH]c(SCC(=O)NN(c2ccccc2)c2ccccc2)n1,inactive
19,CC1CCN(Cc2c(C(=O)N/N=C/c3ccc(C(C)(C)C)cc3)nnn2-c2nonc2N)CC1,"inconclusive: 20.6 µM [cytotoxic, single point]"
20,COc1cccc2[nH]c3c(N4CCCCC4)ncnc3c12,inactive
21,CN(CC(=O)NC1CCN(Cc2ccccc2)CC1)S(=O)(=O)c1ccc2c(c1)c(=O)n(C)c(=O)n2C,"inconclusive: 29.1 µM [rising, single point]"
22,O=C(NCCc1cccc(C(F)(F)F)c1)C1CCC(=O)N(Cc2ccc(Cl)cc2)C1 (stereo not given),"inconclusive: 8.2 µM [cytotoxic, partial curve, poor fit]"

row,Structure (SMILES),Potency
1,Cc1ccc(C)c(NC(=O)CN(C)C(=O)COc2ncnc3sccc23)c1,"inconclusive: 29.1 µM [rising, single point]"
2,Cc1ccc(NC2=C(C(=O)c3ccccc3)N(C)S(=O)(=O)c3ccccc32)cc1,"inconclusive: 18.4 µM [cytotoxic, single point]"
3,C/C(Cl)=C\Cn1c(Nc2cccc(C)c2)nc2c1c(=O)n(C)c(=O)n2C,"inconclusive: 29.1 µM [cytotoxic, single point]"
4,CC(=O)N(CCc1ccccc1)Cc1cc2ccc(C)c(C)c2[nH]c1=O,"inconclusive: 8.2 µM [cytotoxic, partial curve, poor fit]"
5,CCOC(=O)N1CCN(S(=O)(=O)c2ccc(OCC)c3ccccc23)CC1,"inconclusive: 18.4 µM [cytotoxic, partial curve, poor fit]"
6,Cc1c(C(=O)N2CC(C)OC(C)C2)oc2ccccc12 (stereo not given),"inconclusive: 23.1 µM [cytotoxic, single point]"
7,COc1cc(/C=C/C(=O)N2CCC=CC2=O)cc(OC)c1OC,"inconclusive: 29.1 µM [cytotoxic, single point]"
8,CCN(C(=O)Cn1cc(S(=O)(=O)Cc2ccccc2Cl)c2ccccc21)c1ccccc1,"inconclusive: 13 µM [cytotoxic, partial curve]"
10,COc1ccc(-c2cnnc(N/N=C/c3ccc(-c4ccc([N+](=O)[O-])cc4)o3)n2)cc1,active: 18.4 µM
11,Cc1ccc(C(=O)NCCC2=CCCCC2)cc1S(=O)(=O)N1CCCCC1,"inconclusive: 4.11 µM [cytotoxic, full curve]"
12,Cc1n[nH]c(C)c1S(=O)(=O)N1CCCC(C(=O)Nc2ccc(Cl)cc2)C1 (stereo not given),"inconclusive: 0.731 µM [cytotoxic, full curve, poor fit]"
13,Cc1cnc(-c2nc3ccccc3n2C(C)C(=O)Nc2c(C)cccc2C)cn1 (stereo not given),"inconclusive: 7.31 µM [cytotoxic, partial curve, poor fit]"
14,CCOC(=O)[C@]12CCCC=C1N(Cc1ccccc1)C(=O)[C@H](CC(=O)N1CCN(C(=O)C3CC3)CC1)C2,inactive
15,N#CCc1c(C#N)c(N)nc(N2CCN(c3ccc(F)cc3)CC2)c1C#N,active: 11.6 µM
16,COc1cccc(-c2cnc(C(O)c3ccc(F)cc3C)[nH]2)c1 (stereo not given),inactive
17,CCOC(=O)N1CCN(C(=O)CSc2ccc(-c3ccccc3)nn2)CC1,"inconclusive: 18.4 µM [cytotoxic, partial curve, poor fit]"
18,CCC(C(=O)NCc1ccccc1OC)n1nc(C)n2c(cc3sccc32)c1=O (stereo not given),inactive
19,O=C(NC1CC1)C1CCCN1S(=O)(=O)c1ccc2ccccc2c1 (stereo not given),"inconclusive: 20.6 µM [cytotoxic, single point]"
20,COc1ccc(Br)c2c1C(=O)CC2,"inconclusive: 18.4 µM [cytotoxic, partial curve, poor fit]"
21,COc1ccc(/C(C)=N/NC(=O)CNC(=O)CCc2ccccc2)c(OC)c1,"inconclusive: 23.1 µM [cytotoxic, partial curve, poor fit]"
